Reference: paper PMC5155162
Results are given in words; binding and its absence hold for the method and conditions named. In cells and extracts the contact can be indirect. Some binding calls cover weakened binding; strength is not graded here.

Chains of the proteins cited; added tags and fusions are not shown. Lines headed by an entry give the natural chain unless they say otherwise; changes in a name come on top. A line that says so, or that is headed by a name, gives the form on record, which may keep a tag or linker.
UniProt Q96D31: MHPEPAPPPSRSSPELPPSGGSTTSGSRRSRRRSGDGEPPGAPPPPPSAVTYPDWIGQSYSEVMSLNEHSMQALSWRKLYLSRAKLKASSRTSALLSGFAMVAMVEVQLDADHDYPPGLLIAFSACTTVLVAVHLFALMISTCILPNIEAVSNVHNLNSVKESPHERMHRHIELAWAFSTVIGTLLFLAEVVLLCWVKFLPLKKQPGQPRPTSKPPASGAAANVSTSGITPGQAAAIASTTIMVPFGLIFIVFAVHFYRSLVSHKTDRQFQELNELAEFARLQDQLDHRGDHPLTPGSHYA
C-terminally tagged CFP- and YFP-Orai1-ANSGA (Q96D31, form named): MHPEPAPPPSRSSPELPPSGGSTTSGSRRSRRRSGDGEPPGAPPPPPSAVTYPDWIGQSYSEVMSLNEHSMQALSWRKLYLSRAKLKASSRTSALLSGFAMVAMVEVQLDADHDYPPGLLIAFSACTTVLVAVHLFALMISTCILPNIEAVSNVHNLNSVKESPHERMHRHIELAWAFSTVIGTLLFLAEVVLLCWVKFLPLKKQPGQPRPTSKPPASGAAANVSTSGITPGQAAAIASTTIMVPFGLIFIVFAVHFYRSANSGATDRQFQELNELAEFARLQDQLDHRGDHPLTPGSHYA

What was measured:
[1] = target: C-terminally tagged CFP- and YFP-Orai1 (Orai1-WT) (human) (UniProt Q96D31); assay: FRET or BRET; Orai1-Orai1 FRET between C-terminally CFP- and YFP-tagged copies expressed as a mixture in cells; before and after store depletion
[2] = target: C-terminally tagged CFP- and YFP-Orai1-ANSGA (human) (UniProt Q96D31); assay: as above

Q: For “C-terminally tagged CFP- and YFP-Orai1 (Orai1-WT) (from UniProt Q96D31 1-301)”, which binding [1] is on record?
A: binds

Q: “C-terminally tagged CFP- and YFP-Orai1-ANSGA (from UniProt Q96D31 1-301)” was tested. Which binding [2] did it give?
A: binds
